Results: PMC3128601

T1: C-terminal cytoplasmic domain of calnexin (C-tail), fused to the GAL4 DNA-binding domain (pGBKT7-CNX-C) (mouse) (UniProt P35564)
T1 sequence: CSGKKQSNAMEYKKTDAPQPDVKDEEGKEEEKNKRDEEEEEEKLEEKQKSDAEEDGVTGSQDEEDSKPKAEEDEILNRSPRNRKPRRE


Key:
[1] = target: T1, C-terminal cytoplasmic domain of calnexin (C-tail), fused to the GAL4 DNA-binding domain (pGBKT7-CNX-C) (mouse); assay: two-hybrid; pGBKT7 with calnexin C-tail and pGADT7 with SGIP1 or SGIP1 domains in strain AH109; growth on SD/-Leu/-Trp/-His/-Ade and filter lift assays
GFP-SGIP1 (mouse) = assay: co-IP; N1E-115 cells transfected with GFP-SGIP1 or GFP, lysed in RIPA buffer (50 mM Tris pH 7.4, 150 mM NaCl, 1% NP-40, 0.25% sodium deoxycholate, 1 mM EDTA); immunoprecipitation with anti-GFP, Western blot with anti-calnexin

binding [1]	binding (GFP-SGIP1 (mouse))	Molecule
binds	–	SGIP1 Adap-Comp-Sub domain (amino acid residues 647-826) in pGADT7 (mouse) (domain or fragment)
binds	–	SGIP1 in pGADT7 (yeast two-hybrid prey) (mouse)
–	binds	calnexin (endogenous) (protein, UniProt P35564 21-591) HDGHDDDAIDIEDDLDDVIEEVEDSKSKSDASTPPSPKVTYKAPVPTGEVYFADSFDRGSLSGWILSKAKKDDTDDEIAKYDGKWEVDEMKETKLPGDKGLVLMSRAKHHAISAKLNKPFLFDTKPLIVQYEVNFQNGIECGGAYVKLLSKTAELSLDQFHDKTPYTIMFGPDKCGEDYKLHFIFRHKNPKTGVYEEKHAKRPDADLKTYFTDKKTHLYTLILNPDNSFEILVDQSVVNSGNLLNDMTPPVNPSREIEDPEDRKPEDWDERPKIADPDAVKPDDWDEDAPSKIPDEEATKPEGWLDDEPEYIPDPDAEKPEDWDEDMDGEWEAPQIANPKCESAPGCGVWQRPMIDNPNYKGKWKPPMIDNPNYQGIWKPRKIPNPDFFEDLEPFKMTPFSAIGLELWSMTSDIFFDNFIISGDRRVVDDWANDGWGLKKAADGAAEPGVVLQMLEAAEERPWLWVVYILTVALPVFLVILFCCSGKKQSNAMEYKKTDAPQPDVKDEEGKEEEKNKRDEEEEEEKLEEKQKSDAEEDGVTGSQDEEDSKPKAEEDEILNRSPRNRKPRRE

Results are given in words; binding and its absence hold for the method and conditions named. Binding can be weak; no strength is given. For part of these data: Where a sequence is shown, tags or fusion partners need not be part of it. For part of these data: Binding seen in cells or lysates may run through a third protein.
